Results deposited as PubChem BioAssay AID1053208 (Peter MacCallum Cancer Centre, 2014)

Aim: 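Synthetic lethal interactions between gene loss and doxorubicin in osteosarcoma cells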 (primary screen)
System: mouse osteosarcoma cells, early-passage culture from an engineered mouse model of fibroblastic bone tumour
Reagent: siRNA pool against mouse genes, 40 nM
Duration: about 120 h (48 h before drug, then 72 h with drug)
Treatment: doxorubicin 100 nM for 72 h, roughly 30-40% inhibitory dose
Read-out: 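Viability read as ATP luminescence after 72 h of 100 nM doxorubicin or none, duplicate wells averaged, scaled to non-targeting siRNA, then expressed as robust z-scores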
Scale: viability z-score with doxorubicin: higher = more viable cells under doxorubicin; viability z-score without drug: higher = more viable cells with knock-down alone; z-score of drug to no-drug ratio: higher = less drug sensitisation by knock-down
Call rule: 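Called active if knock-down leaves viability unchanged without drug (z within -2 to 2) but lowers it with doxorubicin (z at or under -2)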
The whole screen tested about 17,000 reagents; below is a part drawn at random. 788 of all reagents (4.7%) count as active. 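Calls rest on z-score classes alone; an extra cut-off of viability at most 70% of control was not applied to them.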 Further read-outs or replicates are left out here. No sequences are given here.

gene symbol	combined z-score class	viability z-score with doxorubicin	viability z-score without drug	z-score of drug to no-drug ratio	call
Npy1r (neuropeptide Y receptor Y1)	no change with or without drug	-0.34	-0.17	-0.11	inactive
Ccdc85b (coiled-coil domain containing 85B)	no change with or without drug	0.22	-0.51	0.67	inactive
Mcpt4 (mast cell protease 4)	no change with or without drug	-1.57	1.18	-2.25	inactive
Cacng4 (calcium channel, voltage-dependent, gamma subunit 4)	no change with or without drug	0	1.18	-0.67	inactive
Gmfg (glia maturation factor, gamma)	no change with or without drug	0.11	0.17	0.11	inactive
Nphp1 (nephronophthisis 1 (juvenile) homolog (human))	no change with or without drug	0.45	-0.17	0.67	inactive
Tas2r129 (taste receptor, type 2, member 129)	no change with or without drug	0.67	-0.67	1.35	inactive
Hmces (5-hydroxymethylcytosine (hmC) binding, ES cell specific)	no change with or without drug	-0.67	-1.01	0.11	inactive
Psmd8 (proteasome (prosome, macropain) 26S subunit, non-ATPase, 8)	no change with or without drug	-1.69	-0.17	-1.57	inactive
Bnc2 (basonuclin zinc finger protein 2)	no change with or without drug	-0.11	-0.17	0.11	inactive
Mettl1 (methyltransferase 1, tRNA methylguanosine)	low cell count with and without drug	-3.6	-3.54	-1.57	inactive
Pigp (phosphatidylinositol glycan anchor biosynthesis, class P)	no change with or without drug	0	0.51	-0.22	inactive
Ptpmt1 (protein tyrosine phosphatase, mitochondrial 1)	no change with or without drug	0	0.17	0	inactive
Ptger1 (prostaglandin E receptor 1 (subtype EP1))	no change with or without drug	1.12	0.84	0.67	inactive
Col2a1 (collagen, type II, alpha 1)	no change with or without drug	-0.67	1.01	-1.24	inactive
Uba7 (ubiquitin-like modifier activating enzyme 7)	no change with or without drug	-1.35	-0.67	-0.9	inactive
Gimap7 (GTPase, IMAP family member 7)	no change with or without drug	0.45	0.51	0.22	inactive
Adam5 (a disintegrin and metallopeptidase domain 5)	no change with or without drug	0.34	0.51	0.11	inactive
Or51f5 (olfactory receptor family 51 subfamily F member 5)	no change with or without drug	-0.67	-1.18	0.22	inactive
Phkg1 (phosphorylase kinase gamma 1)	no change with or without drug	0	0.51	-0.22	inactive
Slc75a1	low cell count without drug only	0.45	-2.19	2.47	inactive
Alas2 (aminolevulinic acid synthase 2, erythroid)	no change with or without drug	0.22	-1.35	1.35	inactive
Zfp59 (zinc finger protein 59)	no change with or without drug	-1.57	0.67	-1.91	inactive
Kif4 (kinesin family member 4)	no change with or without drug	-1.35	-1.01	-0.67	inactive
Mon1a (MON1 homolog A, secretory traffciking associated)	low cell count with doxorubicin only	-3.15	-0.51	-2.92	active
Hpvc-ps (retired record)	no change with or without drug	-0.9	-0.17	-0.79	inactive
Zfp790 (zinc finger protein 790)	no change with or without drug	0.45	0.17	0.45	inactive
Atf7 (activating transcription factor 7)	no change with or without drug	0.9	-0.84	1.69	inactive
Cadps2 (Ca2+-dependent activator protein for secretion 2)	low cell count with doxorubicin only	-4.27	1.52	-4.95	active
Mb21d2 (Mab-21 domain containing 2)	no change with or without drug	0.22	-0.17	0.45	inactive
Boc (BOC cell adhesion associated, oncogene regulated)	no change with or without drug	-0.11	0	0	inactive
Xlr4b (X-linked lymphocyte-regulated 4B)	no change with or without drug	1.35	1.18	0.67	inactive
Hoxc9 (homeobox C9)	no change with or without drug	-1.12	-1.18	-0.34	inactive
A330008L17Rik (RIKEN cDNA A330008L17 gene)	no change with or without drug	0.67	-0.67	1.35	inactive
Trib2 (tribbles pseudokinase 2)	no change with or without drug	0.22	0.51	0	inactive
Zbtb24 (zinc finger and BTB domain containing 24)	no change with or without drug	0.11	-1.18	1.12	inactive
Nab2 (Ngfi-A binding protein 2)	no change with or without drug	1.35	0.51	1.12	inactive
Bag4 (BCL2-associated athanogene 4)	no change with or without drug	0.45	0.51	0.22	inactive
Tnfrsf11a	no change with or without drug	-0.45	0.67	-0.79	inactive
H2-T13 (histocompatibility 2, T region locus 13)	no change with or without drug	1.35	-0.84	2.25	inactive
Atp2a2 (ATPase, Ca++ transporting, cardiac muscle, slow twitch 2)	no change with or without drug	-1.35	-1.85	0	inactive
Ttll9 (tubulin tyrosine ligase-like family, member 9)	low cell count with doxorubicin only	-2.02	1.85	-2.92	active
Hgf (hepatocyte growth factor)	no change with or without drug	0	0.67	-0.34	inactive
Hoxa1 (homeobox A1)	no change with or without drug	0	-0.17	0.22	inactive
Rae1 (ribonucleic acid export 1)	low cell count without drug only	-0.45	-2.53	1.57	inactive
Ptpn9 (protein tyrosine phosphatase, non-receptor type 9)	no change with or without drug	0.34	-0.17	0.56	inactive
Nsun4 (NOL1/NOP2/Sun domain family, member 4)	no change with or without drug	0.79	1.85	-0.34	inactive
Sqor (sulfide quinone oxidoreductase)	no change with or without drug	-0.67	-0.84	0	inactive
Erc2 (ELKS/RAB6-interacting/CAST family member 2)	no change with or without drug	-0.67	0.51	-0.9	inactive
Ftdc2 (ferritin domain containing 2)	no change with or without drug	-1.57	0.17	-1.69	inactive

Part of the list above, set out differently:
gene symbol,combined z-score class,viability z-score with doxorubicin,viability z-score without drug,z-score of drug to no-drug ratio,call
Zfp59 (zinc finger protein 59),no change with or without drug,-1.57,0.67,-1.91,inactive
Kif4 (kinesin family member 4),no change with or without drug,-1.35,-1.01,-0.67,inactive
"Mon1a (MON1 homolog A, secretory traffciking associated)",low cell count with doxorubicin only,-3.15,-0.51,-2.92,active
Hpvc-ps (retired record),no change with or without drug,-0.9,-0.17,-0.79,inactive
Zfp790 (zinc finger protein 790),no change with or without drug,0.45,0.17,0.45,inactive
Atf7 (activating transcription factor 7),no change with or without drug,0.9,-0.84,1.69,inactive
Cadps2 (Ca2+-dependent activator protein for secretion 2),low cell count with doxorubicin only,-4.27,1.52,-4.95,active
Mb21d2 (Mab-21 domain containing 2),no change with or without drug,0.22,-0.17,0.45,inactive
